In US20040265972A1:
No constants are given. Whether binding was seen depends on the method and setting. Some results given as binding are weak or reduced against the parent protein; the word gives no strength.

Chains of the proteins cited; added tags and fusions are not shown. Lines headed by an entry give the natural chain unless they say otherwise; changes in a name come on top. Residues count along the entry.
UniProt P30730, residues 27-700: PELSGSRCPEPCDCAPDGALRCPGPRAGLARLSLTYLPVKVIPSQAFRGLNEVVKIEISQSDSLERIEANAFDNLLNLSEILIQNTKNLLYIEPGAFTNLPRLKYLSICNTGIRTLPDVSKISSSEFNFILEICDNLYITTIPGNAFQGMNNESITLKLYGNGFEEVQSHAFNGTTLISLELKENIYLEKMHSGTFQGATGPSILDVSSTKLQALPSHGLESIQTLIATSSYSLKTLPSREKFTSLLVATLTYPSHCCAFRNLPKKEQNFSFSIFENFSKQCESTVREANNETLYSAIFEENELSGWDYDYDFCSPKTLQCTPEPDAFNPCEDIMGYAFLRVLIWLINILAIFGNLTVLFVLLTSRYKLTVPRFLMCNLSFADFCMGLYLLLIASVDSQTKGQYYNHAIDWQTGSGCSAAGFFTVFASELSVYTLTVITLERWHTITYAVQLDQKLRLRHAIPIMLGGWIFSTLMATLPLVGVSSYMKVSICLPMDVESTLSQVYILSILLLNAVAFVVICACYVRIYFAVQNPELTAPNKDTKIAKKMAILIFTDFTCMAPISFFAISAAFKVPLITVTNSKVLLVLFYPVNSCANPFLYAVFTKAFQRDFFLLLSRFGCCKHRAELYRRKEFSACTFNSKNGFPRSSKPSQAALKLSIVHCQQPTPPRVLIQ
UniProt P01215: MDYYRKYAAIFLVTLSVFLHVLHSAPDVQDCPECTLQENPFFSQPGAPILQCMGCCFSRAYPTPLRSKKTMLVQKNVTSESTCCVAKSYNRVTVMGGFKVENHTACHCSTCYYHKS

Target: CG/LH receptor of transformed murine Leydig cells (MA-10) (murine) (UniProt P30730)
Assay: told in words; bioactivity assay on murine Leydig MA-10 cells

- binding: binds
Substance: mutant hCG heterodimer of wild type common α-subunit and hCG-βN77D (from UniProt P01215 25-116; P0DN86 21-160) (ligand)
